Assay results

Source: PubChem BioAssay AID977624 (Broad Institute, 2014).

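Wild-type E. coli carrying GFP, grown in the same well as an h34 humanized-ribosome RFP strain; GFP fluorescence for growth, read after 24 h.
The value is the change in activity at the highest dose tested; more negative means stronger inhibition.
Active requires GFP to fall at least twice as much as RFP with growth loss below a set limit; inconclusive means no clear call; everything else is inactive.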

Only part of the assay is shown, chiefly results filed as inconclusive.

| SMILES | setting | activity change | call |
|---|---|---|---|
| `CC(C)Oc1cccc(C(=O)C2CCCN(C(=O)c3cc(C(F)(F)F)[nH]n3)C2)c1` (centres unmarked) | at 50 µM (top of the series) | 47.32 | inconclusive |
| `Cc1cc(SCC(=O)c2cccs2)n2nc(C)c(-c3ccc(Cl)cc3)c2n1` | at 50 µM (top of the series) | 15.47 | inconclusive |
| `COc1ccccc1CC(=O)NCCc1c[nH]c2ccccc12` | at 50 µM (top of the series) | 17.59 | inconclusive |
| `CCOc1ccc(-c2nc(-c3cccs3)c(CC(=O)O)s2)cc1OC` | at 50 µM (top of the series) | -0.387 | inactive |
| `COC(=O)c1cc(C(=O)Cc2ccccc2)c[nH]1` | at 50 µM (top of the series) | 18.73 | inconclusive |
| `O=C(Nc1ccc(C(=O)c2ccccc2)cc1)c1ccccc1` | at 50 µM (top of the series) | 3.543 | inconclusive |
| `CCOC(=O)C(C)Sc1nc(N2CCOCC2)c2c(c1C#N)CC(C)(C)OC2` (centres unmarked) | at 50 µM (top of the series) | -2.493 | inconclusive |
| `N#Cc1ccsc1NC(=O)CSc1nnc(NC2CC2)s1` | at 50 µM (top of the series) | 10.15 | inconclusive |
| `COc1ccccc1-c1noc2ncnc(Nc3cccc(C)c3C)c12` | at 50 µM (top of the series) | -1.317 | inactive |
| `CCc1ccc(CN2CCCC(CNS(=O)(=O)c3ccc(OC)cc3)C2)cc1` (centres unmarked) | at 50 µM (top of the series) | 35.48 | inconclusive |
| `CC1CCCC(NC(=O)COC(=O)Cc2c[nH]c3ccccc23)C1C` (centres unmarked) | at 50 µM (top of the series) | 9.141 | inconclusive |
| `COc1ccc(-c2nc(C3CCCCC3)no2)cc1OC` | at 50 µM (top of the series) | -9.052 | inconclusive |
| `C[C@H](CO)N1C[C@H](C)[C@@H](CN(C)C)OCCCC[C@H](C)Oc2ccc(NC(=O)Nc3cccc4ccccc34)cc2C1=O` | at 50 µM (top of the series) | 30.93 | inconclusive |
| `O=[N+]([O-])c1ccccc1CN1CCN(S(=O)(=O)c2ccccc2)CC1` | at 50 µM (top of the series) | -2.322 | inconclusive |
| `Nc1nc(Nc2ccccc2F)nc(NCc2ccco2)c1[N+](=O)[O-]` | at 50 µM (top of the series) | 21.84 | inconclusive |
| `Cc1cccc(NS(=O)(=O)c2cc3c(cc2C)NC(=O)CO3)c1` | at 50 µM (top of the series) | 31.23 | inconclusive |
| `CC(=O)Nc1ccc(-c2ccnc3c2CC(C)(C(=O)Nc2ccc4c(c2)OCO4)O3)cc1` (centres unmarked) | at 50 µM (top of the series) | -5.272 | inconclusive |
| `CSc1ccccc1C(=O)NCCc1ccc(S(=O)(=O)N2CCCCC2)cc1` | at 50 µM (top of the series) | 7.841 | inactive |
| `COc1ccc(NC(=O)CSc2nnc(Cc3ccccc3)o2)c(OC)c1` | at 50 µM (top of the series) | 13.84 | inconclusive |
| `Cc1cccc(-c2ccc([C@@H]3[C@H](CO)N4CCCCN(S(=O)(=O)c5ccccc5C)C[C@@H]34)cc2)c1` | at 50 µM (top of the series) | 11.35 | inconclusive |
| `Cc1nn(CC(=O)OCCOc2ccc(Br)cc2)c(C)c1[N+](=O)[O-]` | at 50 µM (top of the series) | 10.07 | inactive |
| `COCCCNC(=O)c1ccc(-c2nc3ccccc3nc2-c2ccccc2)cc1` | at 50 µM (top of the series) | 5.905 | inconclusive |
| `C=C(C)Cn1c(SCC(=O)O)nc2c1c(=O)[nH]c(=O)n2C` | at 50 µM (top of the series) | 51.13 | inconclusive |
| `CC(C)(C)C1CCC(OC(=O)C[N+]2(C)CCCCC2)CC1` (centres unmarked) | at 50 µM (top of the series) | 10 | inconclusive |
| `COc1ccc(NC(=O)c2nc[nH]c2C(=O)N(C)Cc2ccccc2)cc1` | at 50 µM (top of the series) | 1.072 | inconclusive |
| `CCOc1ccccc1C(=O)OCC(=O)NCCc1ccc(OC)cc1` | at 50 µM (top of the series) | -14.79 | inconclusive |
| `CC1CCCCN1C(=O)C1CCCN(S(=O)(=O)c2cccc3nsnc23)C1` (centres unmarked) | at 50 µM (top of the series) | -1.955 | inconclusive |
| `Cc1cc(NC(=O)CCN2C(=O)C3C4C=CC(C4)C3C2=O)ccc1Br` (centres unmarked) | at 50 µM (top of the series) | 5.522 | inconclusive |
| `COc1ccc(C2=Nc3ccccc3NC(=O)C2N(C(=O)c2ccnc3ccccc23)c2ccccc2)cc1` (centres unmarked) | at 50 µM (top of the series) | -2.711 | inconclusive |
| `CC(=O)Cc1cc(O)c2ccccc2c1OC(=O)c1ccc(Br)cc1` | at 50 µM (top of the series) | 8.047 | inconclusive |
| `CN(CC(=O)Nc1ccc(S(=O)(=O)N2CCCC2)cc1)CC(=O)Nc1ccc(F)c(F)c1F` | at 50 µM (top of the series) | -10.49 | inconclusive |
| `O=C(CSc1nc(C2CC2)nc2ccccc12)Nc1ccccc1N1CCOCC1` | at 50 µM (top of the series) | 24.35 | inconclusive |
| `O=C(O)c1nn2c(C(F)(F)F)cc(-c3cccs3)nc2c1Cl` | at 50 µM (top of the series) | 4.313 | inactive |
| `Cc1nonc1C1CCCN1C(=O)c1cc(COc2ccc(F)cc2F)on1` (centres unmarked) | at 50 µM (top of the series) | -13.43 | inconclusive |
| `COc1ccc(-c2csc(NC(=O)c3ccccc3S(C)(=O)=O)n2)cc1` | at 50 µM (top of the series) | -10.02 | inconclusive |
| `Cc1ccc(Nc2nc(C(=O)NCC3CCCO3)cs2)cc1` (centres unmarked) | at 50 µM (top of the series) | 23.89 | inconclusive |
| `COc1ccc(Cc2nnc(Nc3ccc(C)cc3)o2)cc1OC` | at 50 µM (top of the series) | 9.983 | inconclusive |
| `CN1C(=O)c2cc(NC(=O)c3cccc(F)c3)ccc2OC[C@H]2O[C@@H](CC(=O)NCC3CCCCC3)CC[C@@H]21` | at 50 µM (top of the series) | 2.527 | inconclusive |

Repeated from the top, 2 entries:

CC(C)Oc1cccc(C(=O)C2CCCN(C(=O)c3cc(C(F)(F)F)[nH]n3)C2)c1 (centres unmarked) [at 50 µM (top of the series)] gave activity change 47.32 (inconclusive).
Cc1cc(SCC(=O)c2cccs2)n2nc(C)c(-c3ccc(Cl)cc3)c2n1 [at 50 µM (top of the series)] gave activity change 15.47 (inconclusive).